Measured values taken from patent US5436251A, “Treatment of anxiety and gastrointestinal disorders with azabicyclo carbonyl-2-(cyclopropylmethyloxy)benzamide” (John Wyeth & Brother, Limited, priority 1992, dated 1995).
The structures given here were assigned with low confidence; some may be wrong.

Amino acid sequences for entries named in this document (tags omitted). Residues count along the entry.
UniProt P35563, 24-483 limits assumed: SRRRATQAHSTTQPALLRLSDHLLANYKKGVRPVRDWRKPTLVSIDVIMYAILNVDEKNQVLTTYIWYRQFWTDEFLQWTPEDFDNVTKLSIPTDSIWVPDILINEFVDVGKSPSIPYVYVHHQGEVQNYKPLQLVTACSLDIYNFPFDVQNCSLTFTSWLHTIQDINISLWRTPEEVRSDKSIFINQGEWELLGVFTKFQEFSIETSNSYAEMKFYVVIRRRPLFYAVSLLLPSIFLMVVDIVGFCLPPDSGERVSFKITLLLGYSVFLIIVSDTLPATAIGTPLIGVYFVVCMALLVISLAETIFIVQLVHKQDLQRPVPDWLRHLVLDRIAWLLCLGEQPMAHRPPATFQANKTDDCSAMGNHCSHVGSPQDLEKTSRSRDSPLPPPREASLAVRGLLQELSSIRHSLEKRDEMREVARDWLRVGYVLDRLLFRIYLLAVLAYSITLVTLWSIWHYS

Legend:
5-HT3 receptors = 5-HT3 receptors (Rattus norvegicus, UniProt P35563); assay: 5-HT3 antagonistic activity in the rat vagus (antagonism of 5-HT depolarization of isolated vagus nerve, Schild analysis); set-up: species or system rat (Sprague-Dawley); details: rat vagus nerve in vitro
Method: Compound A, the compound of GB 2236528A and the compounds disclosed in GB 2213816A are tested for 5-HT3 antagonistic activity in the rat vagus by the following procedure:
The method is similar to that described by Ireland and Tyers, Br. J. Pharmac., 1987, 90, 229-238 and is dependent upon the ability of 5-HT to depolarize the vagus nerve in vitro.
Segments of the vagus nerve from Sprague-Dawley rats were placed in a perspex chamber and perfused with Krebs solution. Electrodes, positioned at either end of the nerve segment, were used to record the potential differences which ensued upon the addition of various concentrations of 5-HT to one end of the nerve segment.
Concentration-response curves to 5-HT were obtained in this manner prior to and following equilibration of the nerve segment with Krebs solution containing the test-substance.

[1] = Potential anxiolytic activity: mouse exploratory activity in a two-compartment light/dark box; details: s.c., significant (p<0.05) increase in rearing activity in the light section
Method: Compound A, the compound of GB 2236528A and a representative number of compounds disclosed in GB 2213816A which had high pA2 values in the 5-HT3 -antagonist test procedure given above were tested for potential anxiolytic activity by a test procedure measuring mouse exploratory activity in a two-compartment light/dark box based upon the procedure of B Costall et al, Neuropharmacology, 1987, 26, 195-200 and J. N. Crawley et al, Pharmac. Biochemo Behav., 1980, 13, 167-170. The test involves observing groups of mice placed in an open topped box, one third of which is painted black and illuminated under a dim red light and partitioned from the remainder of the box which is painted white and brightly illuminated. Access between the two sections is via an opening in the centre of the partition. The groups of mice are treated with vehicle or test compound and various behavioural parameters of the animals are measured including the number of exploratory rearings made by the mice in each section and the number of times the mice cross lines marked on the floor of each section. For each treatment group the mean numbers of line crossings and rears in each section of the box are calculated. Differences between drug-treated groups and vehicle-treated controls are compared using Student's unpaired t-test. […] Test compounds are considered to be active if they induce a similar set of changes and, in particular, if they produce a significant (p<0.05) increase in rearing activity in the light section of the box.

Question: For `COc1ccc(C(=O)NC(=O)NC2CN3CCC2CC3)cc1` (stereo not drawn), which pA2 (5-HT3 receptors; tested form: maleate hemihydrate) is on record?
Answer: < 6.5

Question: Which pA2 (5-HT3 receptors; tested form: fumarate) does the source give for `COc1ccccc1C(=O)NC(=O)N[C@H]1CN2CCC1CC2` here?
Answer: 8.15

Question: For `O=C(NC(=O)c1cccs1)NC1CN2CCC1CC2` (stereo not drawn), which pA2 (5-HT3 receptors; tested form: HCl hemihydrate) is on record?
Answer: 6.9

Question: What does the source list for `COc1ccccc1C(=O)NC(=O)NC1CC2CCC(C1)N2C` (stereo not drawn)?
Answer: pA2 (5-HT3 receptors; tested form: HCl): 8.6; minimum effective dose (MED) ([1]; tested form: HCl): 1 mg/kg

Question: Which pA2 (5-HT3 receptors; tested form: HCl hemihydrate) does the source give for `O=C(NC(=O)c1ccc2ccccc2c1)NC1CN2CCC1CC2` (stereo not drawn) here?
Answer: < 6.5

Question: For `O=C(NC(=O)c1ccccc1F)NC1CN2CCC1CC2` (stereo not drawn), which pA2 (5-HT3 receptors; tested form: succinate) is on record?
Answer: < 6.5

Question: Which pA2 (5-HT3 receptors; tested form: HCl) does the source give for `CN1[C@@H]2CC[C@H]1C[C@@H](OC(=O)Nc1cc(Cl)cc(Cl)c1)C2` here?
Answer: 7.6

Question: For `O=C(Nc1cc(Cl)cc(Cl)c1)N[C@@H]1CN2CCC1CC2`, which pA2 (5-HT3 receptors) is on record?
Answer: 8.5

Question: With `C=CCOc1ccccc1C(=O)NC(=O)NC1CN2CCC1CC2` (stereo not drawn) as the molecule, how does the pA2 (5-HT3 receptors; tested form: fumarate) read?
Answer: 7.8

Question: With `Cc1cccc(C)c1C(=O)NC(=O)NC1CN2CCC1CC2` (stereo not drawn) as the molecule, how does the pA2 (5-HT3 receptors; tested form: quarter hydrate) read?
Answer: < 6.5

Question: With `CN1[C@@H]2CC[C@H]1C[C@@H](NC(=O)Nc1cc(Cl)cc(Cl)c1)C2` as the molecule, how does the pA2 (5-HT3 receptors; tested form: maleate) read?
Answer: 7.9

Question: Which pA2 (5-HT3 receptors; tested form: fumarate) does the source give for `Cc1ccccc1C(=O)NC(=O)NC1CN2CCC1CC2` (stereo not drawn) here?
Answer: 6.6

Question: With `O=C(Nc1cc(Cl)cc(Cl)c1)N[C@H]1CN2CCC1CC2` as the molecule, how does the pA2 (5-HT3 receptors; tested form: quarter hydrate) read?
Answer: 7.4

Question: What about the “minimum effective dose (MED)” value ([1]; tested form: quarter hydrate) of the same molecule?
Answer: 1 mg/kg

Question: With `COc1ccccc1C(=O)NC(=O)N[C@@H]1CN2CCC1CC2` as the molecule, how does the pA2 (5-HT3 receptors; tested form: fumarate) read?
Answer: 7.25

Question: With `CCOc1ccccc1C(=O)NC(=O)NC1CN2CCC1CC2` (stereo not drawn) as the molecule, how does the pA2 (5-HT3 receptors; tested form: fumarate) read?
Answer: 8.35

Question: And the “minimum effective dose (MED)” value ([1]; tested form: fumarate)?
Answer: 1 mg/kg

Question: With `O=C(NC(=O)c1ccccn1)NC1CN2CCC1CC2` (stereo not drawn) as the molecule, how does the pA2 (5-HT3 receptors; tested form: fumarate) read?
Answer: < 6.5

Question: With `O=C(NC(=O)c1cccc(C(F)(F)F)c1)NC1CN2CCC1CC2` (stereo not drawn) as the molecule, how does the pA2 (5-HT3 receptors; tested form: oxalate) read?
Answer: < 6.5

Question: With `O=C(NC(=O)c1ccco1)NC1CN2CCC1CC2` (stereo not drawn) as the molecule, how does the pA2 (5-HT3 receptors; tested form: succinate) read?
Answer: < 6.5

Question: Which results are given for `CC(C)Oc1ccccc1C(=O)NC(=O)NC1CN2CCC1CC2` (stereo not drawn)?
Answer: pA2 (5-HT3 receptors; tested form: fumarate): 8.7; minimum effective dose (MED) ([1]; tested form: fumarate): 1 mg/kg

Question: Which pA2 (5-HT3 receptors; tested form: oxalate hemihydrate) does the source give for `O=C(NC(=O)c1ccccc1OCC1CC1)NC1CN2CCC1CC2` (stereo not drawn) here?
Answer: 8.1
